Test results published in paper PMC7507497.
Results are given in words; binding and its absence hold for the method and conditions named. Binding seen in cells or lysates may run through a third protein. Some binding calls cover weakened binding; strength is not graded here. Each block holds one molecule with its values, some of them ahead of it.

Legend:
FLAG-tagged AGO1 (human) = FLAG-tagged AGO1 (human) (UniProt Q9UL18); experiment: co-IP; anti-FLAG M2 IP of FLAG-AGO1 or FLAG-AGO1x from total cell lysates, SDS-PAGE and Western blotting
[1] = target: T1, polyribonucleotide nucleotidyltransferase 1 (PNPT1) (human (endogenous in MDA-MB-231)) (UniProt Q8TCS8); experiment: co-IP; reciprocal IP with PNPT1 antibody against IgG from control and mutant MDA-MB-231 cells, done like the AGO1x IP; Western blotting; three biological replicates
T1 sequence: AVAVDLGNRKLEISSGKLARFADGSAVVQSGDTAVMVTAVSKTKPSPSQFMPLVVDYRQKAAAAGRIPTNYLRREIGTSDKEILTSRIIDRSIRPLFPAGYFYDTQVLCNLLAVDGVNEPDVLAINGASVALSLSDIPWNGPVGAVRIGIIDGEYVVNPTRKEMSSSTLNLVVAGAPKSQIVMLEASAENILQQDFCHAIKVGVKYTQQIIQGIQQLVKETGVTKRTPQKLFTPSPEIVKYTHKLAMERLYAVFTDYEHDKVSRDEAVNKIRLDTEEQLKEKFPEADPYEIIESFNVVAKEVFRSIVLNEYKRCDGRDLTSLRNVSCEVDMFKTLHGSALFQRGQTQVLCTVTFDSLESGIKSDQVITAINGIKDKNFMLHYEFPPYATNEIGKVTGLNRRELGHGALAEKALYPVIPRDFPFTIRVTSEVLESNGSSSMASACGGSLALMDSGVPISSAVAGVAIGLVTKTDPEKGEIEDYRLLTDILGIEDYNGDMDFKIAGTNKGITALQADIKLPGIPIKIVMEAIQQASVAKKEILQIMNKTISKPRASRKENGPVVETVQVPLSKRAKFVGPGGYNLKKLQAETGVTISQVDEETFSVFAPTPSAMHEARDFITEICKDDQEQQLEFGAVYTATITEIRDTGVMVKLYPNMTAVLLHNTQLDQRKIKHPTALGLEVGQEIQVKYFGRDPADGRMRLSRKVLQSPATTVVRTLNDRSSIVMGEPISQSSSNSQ

- binding (FLAG-tagged AGO1 (human)): binds
Molecule: TNRC6B/GW182 (from UniProt Q9UPQ9 1-1833)

- binding [1]: binds
B1: fibrillarin (FBL) (protein, UniProt P22087 1-321)
chain: MKPGFSPRGGGFGGRGGFGDRGGRGGRGGFGGGRGRGGGFRGRGRGGGGGGGGGGGGGRGGGGFHSGGNRGRGRGGKRGNQSGKNVMVEPHRHEGVFICRGKEDALVTKNLVPGESVYGEKRVSISEGDDKIEYRAWNPFRSKLAAAILGGVDQIHIKPGAKVLYLGAASGTTVSHVSDIVGPDGLVYAVEFSHRSGRDLINLAKKRTNIIPVIEDARHPHKYRMLIAMVDVIFADVAQPDQTRIVALNAHTFLRNGGHFVISIKANCIDSTASAEAVFASEVKKMQQENMKPQEQLTLEPYERDHAVVVGVYRPPPKVKN
